The exact form of at least one protein or probe is not confirmed. At least one verdict was read from the data and is not stated in words by the source.

Sequences of proteins named here, by UniProt entry; tags and fusion partners are left off. Residues count along the entry.
UniProt Q9Y3Z3, 114-626 T592D: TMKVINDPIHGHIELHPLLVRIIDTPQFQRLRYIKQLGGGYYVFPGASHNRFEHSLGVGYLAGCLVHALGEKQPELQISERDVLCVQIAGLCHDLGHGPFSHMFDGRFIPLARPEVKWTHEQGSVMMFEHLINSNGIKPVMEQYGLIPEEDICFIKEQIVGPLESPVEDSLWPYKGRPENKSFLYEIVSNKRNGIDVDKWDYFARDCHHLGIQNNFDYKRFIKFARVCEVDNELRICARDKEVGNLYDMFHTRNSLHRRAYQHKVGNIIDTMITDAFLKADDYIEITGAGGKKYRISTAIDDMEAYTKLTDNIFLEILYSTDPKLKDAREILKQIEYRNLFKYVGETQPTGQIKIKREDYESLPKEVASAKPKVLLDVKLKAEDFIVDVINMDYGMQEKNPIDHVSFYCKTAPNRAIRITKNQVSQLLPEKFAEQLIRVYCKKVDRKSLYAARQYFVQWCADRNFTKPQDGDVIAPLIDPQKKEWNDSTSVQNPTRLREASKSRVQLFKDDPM

One series concerns the target SAMHD1 full-length WT (UniProt Q9Y3Z3). The experiment in a line: fluorescence anisotropy. Conditions: not significantly different from HD domain; phosphorothioate at linkages 1-4, mixed Rp/Sp; FA: 50 mM Tris pH 8, 100 mM NaCl, 5 mM MgCl2, 1 mM TCEP, 50 nM 6FAM-oligo (salt series with KCl 50-150 mM); SEC same buffer; recombinant protein; residues 1-626; label: 5'-6FAM; single-stranded DNA.

The target in another series is SAMHD1 T592D (UniProt Q9Y3Z3). As to the kind of experiment: fluorescence anisotropy. The note with it: no effect of mutation; phosphorothioate at linkages 1-4, mixed Rp/Sp; FA: 50 mM Tris pH 8, 100 mM NaCl, 5 mM MgCl2, 1 mM TCEP, 50 nM 6FAM-oligo (salt series with KCl 50-150 mM); SEC same buffer; recombinant protein; residues 114-626; label: 5'-6FAM; single-stranded DNA. In general terms: Polarisation of emitted light reports the rotation of a fluorescent probe.

On to CGCCT [6FAM-d(C*G*C*C*T)], for which the binding result with SAMHD1 full-length WT and with SAMHD1 T592D was “binds” each time.

For the origin of these results see publication PMC7854603.
